# Results deposited as PubChem BioAssay AID1259279 (Sanger Institute, 2017).
# Test: 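Kinases that colorectal cancer cells need to survive, alone or with drugs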 (primary screen)
# Cell system: LS180 human colorectal cancer cells
# Knock-down reagent: siRNA pool against human genes
# Challenge: anchor drug BYL719 at 1 µM, cetuximab at 5 µg/ml or trametinib at 10 nM, or DMSO vehicle only
# Measured: 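Cell viability versus a non-targeting pool, as a fraction and as a robust z-score from replicate means, plus a synergy score for each of three drugs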
# Direction: viability z-score, no drug: higher = more viable cells after knock-down; viability, no drug: higher = more viable cells
# Call rule: 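Essential (active) calls need a no-drug viability z-score lower than -3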
# Calls: active = essential (knock-down alone cuts viability); inactive = no change without drug
# The deposit covers 794 reagents; this is a random part of them. 11 of them (1.4%) count as active. 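Calls reflect knock-down alone in the vehicle arm, not drug synergy.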 Viability is capped at 1. Not all columns of the deposit are shown. The record does not give: the amount of reagent, the time to read-out.
gene knocked down,PubChem SID,"viability z-score, no drug","viability, no drug (fraction)",outcome
NME6,SID56479120,-0.225,0.882,inactive
PHKB,SID134312707,0.818,0.995,inactive
FLT4,SID152148537,0.86,1,inactive
EIF2AK3,SID152151333,0.397,0.949,inactive
PDXK,SID56478979,0.86,1,inactive
MAST1,SID135620865,-0.0932,0.896,inactive
CIB2,SID134316517,-1.23,0.772,inactive
BUB1,SID152152440,0.86,1,inactive
MYLK2,SID56479029,-1.22,0.774,inactive
PDGFRB,SID152152554,-1.83,0.706,inactive
CKB,SID56479084,0.315,0.941,inactive
FGFR4,SID56478514,0.0838,0.915,inactive
CDK5R2,SID56479219,0.151,0.923,inactive
MVK,SID56479115,0.86,1,inactive
VRK1,SID152147475,0.287,0.938,inactive
PCK1,SID135621257,-1.32,0.762,inactive
MAP3K4,SID152151893,0.688,0.981,inactive
TRIB1,SID56478720,0.00907,0.907,inactive
PSTK,SID134320501,-1.34,0.76,inactive
ILK,SID152151227,0.253,0.934,inactive
ILK,SID152153406,-0.427,0.86,inactive
NAGK,SID135621243,-3.04,0.574,active
AGK,SID56479172,0.276,0.936,inactive
GRK3,SID135620814,0.86,1,inactive
N4BP2,SID152151934,0.86,1,inactive
CASP8,SID135620682,0.86,1,inactive
ADK,SID56478860,0.86,1,inactive
PMVK,SID135621255,-0.0216,0.904,inactive
EPHA5,SID152153658,0.81,0.995,inactive
FN3K,SID56479098,0.86,1,inactive
STK17B,SID56478762,-0.417,0.861,inactive
NUCKS1,SID152150801,0.57,0.968,inactive
AAK1,SID152151067,-2.18,0.668,inactive
EPHA10,SID135620971,-0.325,0.871,inactive
ABL2,SID152153611,0.86,1,inactive
TNK2,SID56478482,0.86,1,inactive
PNKP,SID56479144,-0.518,0.85,inactive
TCF12,SID134311750,-0.27,0.877,inactive
JAK1,SID152154758,0.792,0.993,inactive
DUSP21,SID134312829,0.218,0.93,inactive
CDK15,SID56478852,0.86,1,inactive
PAK5,SID56478749,0.074,0.914,inactive
TAF1,SID56478970,-0.281,0.876,inactive
PGK1,SID56479130,0.86,1,inactive
ELP1,SID56479224,0.466,0.957,inactive
CDKL3,SID56478871,0.86,1,inactive
CTCF,SID135623925,-3.01,0.578,active
DBF4,SID135620786,0.86,1,inactive
PIK3R5,SID152147687,-0.177,0.887,inactive
BRSK2,SID152155603,0.273,0.936,inactive

Sorted by “viability z-score, no drug” (ascending): 4 of the entries above.
gene knocked down,PubChem SID,"viability z-score, no drug","viability, no drug (fraction)",outcome
AAK1,SID152151067,-2.18,0.668,inactive
STK17B,SID56478762,-0.417,0.861,inactive
NUCKS1,SID152150801,0.57,0.968,inactive
FN3K,SID56479098,0.86,1,inactive
